Results of single-concentration screens

Sequences of proteins named here, by UniProt entry; tags and fusion partners are left off. Residues count along the entry.
UniProt Q4DA54, 1-478: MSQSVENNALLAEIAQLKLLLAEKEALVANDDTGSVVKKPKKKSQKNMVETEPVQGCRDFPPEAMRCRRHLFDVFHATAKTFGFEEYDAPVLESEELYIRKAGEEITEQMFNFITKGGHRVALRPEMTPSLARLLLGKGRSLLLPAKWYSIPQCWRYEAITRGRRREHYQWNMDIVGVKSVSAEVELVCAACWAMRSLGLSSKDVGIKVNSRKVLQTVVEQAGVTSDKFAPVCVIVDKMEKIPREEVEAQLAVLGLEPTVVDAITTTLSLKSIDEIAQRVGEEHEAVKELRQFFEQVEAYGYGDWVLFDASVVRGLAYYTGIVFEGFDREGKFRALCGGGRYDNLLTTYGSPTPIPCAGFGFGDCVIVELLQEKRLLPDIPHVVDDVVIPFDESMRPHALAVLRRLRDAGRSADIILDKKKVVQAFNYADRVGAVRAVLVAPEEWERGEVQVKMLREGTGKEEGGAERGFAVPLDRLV
UniProt P9WNZ1, whole entry: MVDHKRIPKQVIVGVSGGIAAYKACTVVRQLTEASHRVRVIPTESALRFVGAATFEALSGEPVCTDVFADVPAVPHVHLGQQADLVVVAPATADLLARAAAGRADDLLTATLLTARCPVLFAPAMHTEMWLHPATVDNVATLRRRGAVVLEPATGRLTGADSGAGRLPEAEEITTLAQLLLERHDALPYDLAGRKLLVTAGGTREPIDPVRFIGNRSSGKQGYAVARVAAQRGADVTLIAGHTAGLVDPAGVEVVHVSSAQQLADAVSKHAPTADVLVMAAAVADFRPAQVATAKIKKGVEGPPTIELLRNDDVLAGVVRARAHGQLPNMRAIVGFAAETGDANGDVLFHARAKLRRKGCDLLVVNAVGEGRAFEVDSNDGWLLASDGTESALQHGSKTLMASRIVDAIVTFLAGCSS

The values are deposited in ChEMBL (CHEMBL3988442, “University of Dundee, Small-Polar-MMV Screening Library” (2021)).

Each number is a percent effect as filed.
How 0% and 100% were set is not recorded. Most values in the screen are low, and negative values occur.
This is an unselected part of the compounds tested.
Two or more numbers in one place are separate tests of the same structure; such repeats can differ widely.
A dash means the value is not listed here; it may have been measured.

Toxoplasma: 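Assay of Toxoplasma gondii numbers, read through their beta-galactosidase reporter with a colour substrate. Tested at 10 µM. The record gives no direction; the compounds picked for IC50 retests had high values, so higher reads as fewer parasites. Size under these conditions: about 67,000 compounds, about 260 of them at 50% or above in at least one test.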
TcHisRS: 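Histidine-tRNA ligase, Trypanosoma cruzi CL Brener (UniProt Q4DA54). Enzyme assay of histidyl-tRNA synthetase; the read-out is not stated. Concentration: 30 µM. Higher reads as stronger inhibition (inferred: compounds with an IC50 in retests scored well above the rest). Of about 69,000 compounds tested this way, about 31 (0.045%) reached 50% or more in at least one test.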
CoaBC: 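Coenzyme A biosynthesis protein CoaBC, Mycobacterium tuberculosis (UniProt P9WNZ1). Enzyme assay of CoaBC with a phosphate dye (Biomol Green) read at 650 nm. Concentration: 30 µM. Direction is inferred from only a few compounds that gave an IC50; most scored high, so higher reads as stronger inhibition. Most strong results did not repeat in a second test. Of about 67,000 compounds tested this way, about 40 (0.06%) reached 50% or more in at least one test.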
Leishmania in macrophages: 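Cell assay of Leishmania donovani living inside macrophages; the read-out is not stated. Tested at 30 µM. Direction is inferred from retests: higher values go with stronger inhibition. Size under these conditions: about 69,000 compounds, about 1,000 of them at 50% or above in at least one test.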

compound	Toxoplasma	TcHisRS	CoaBC	Leishmania in macrophages
O=C1CNc2ncnc(Nc3cnn(Cc4cccc(F)c4)c3)c2N1	-33.56	9.901	1.205	1.163
O=C(O)C(F)(F)F.[H][C@@]12CN(C(=O)Cc3ccsc3)C[C@]1([H])OCCN2CC1CC1	-5.918	-	-	27.27
c1cc(CNCc2ccc3c(c2)CCO3)cc(N2CCOCC2)n1	-	1.695	-6.167	-
CCc1ccccc1OCCNCCc1c[nH]cn1	-8.215	7.595	1.683	39.78
CC(C)COCCC(=O)Nc1ccc2oc(=O)n(CCN(C)C)c2c1	10.35	3.333	-1.653	-0.2957
CN(C)[C@H]1CN(C(=O)CCCc2ccc(F)cc2)C[C@@H]1C1CC1	-4.918	2.4	-7.143	9.372
[H][C@@]12CCC(=O)N(CCc3ccccc3)[C@]1([H])CCN(Cc1cnn(C)c1)C2	4.381	-	-	33.49
Cc1cc(C)n(CC2CN(CCOc3ccccc3F)CCO2)n1 (centres undefined)	-11.75	3.955	3.916	-10.98
CN(CCN1CCCC1=O)S(=O)(=O)CC1CCCC1	-1.299	4.865	-2.564	0.8784
CC(=O)N(C)Cc1ccccc1NC(=O)c1ccccc1C	15.96	4.124	3.579	14.51
CN(CC(=O)NCCC#N)C(c1ccccc1)c1ccccc1	0.3751	6.897	7.937	10.67
O=C(Nc1ccccc1OCC1CCCCO1)c1ccc(O)nc1 (centres undefined)	0.2316	6.723	5.832	8.135
Cn1cc(-c2cnc(N3CCCC3)nc2)cc1C(=O)N1CCOCC1	-5.081	4.878	2.757	17.35
COc1ccc2c(c1)CC(C1CCOCC1)N(C(=O)c1ccnn1C)C2 (centres undefined)	-7.557	4.981	-1.914	1.794
C=C(C)COc1ccccc1C(=O)N1CCC2(CC1)CN(C)CCN2C	6.805	0	-5.6	27.61
COc1ccccc1C(O)CNc1c(C#N)c(=O)n(C)c(=O)n1C (centres undefined)	12.23	10.29	1.05	-2.436
Cc1ccc(C(=O)NCC2CCN(Cc3ccccc3C#N)C2)cn1 (centres undefined)	2.68	3.922	0.7317	2.733
CC(C)NC(=O)N1CC[C@@H]2[C@@H]1CC(=O)N2Cc1cccnc1	-	4.854	7.336	-
O=C(c1ccc[nH]1)N1C[C@H](OCc2ccccn2)[C@H]2COC[C@H]21	-	-0.9346	4.444	-
CC(=O)N1CCc2[nH]nc(C(=O)N3CC=CC3)c2C1	-18.23	5.155	0.9852	34.58
CC(=O)N1CC[C@H]2[C@H](C[C@@H](CN3CCCC3)N2c2nccs2)C1	-	2.793	5.697	-
COC(=O)C1CN(Cc2ccn(-c3ccc(F)cc3)n2)C[C@@H](C)O1 (some centres undefined)	14.51	7.407	7.73	-23.06
O=C(O)C(F)(F)F.[H][C@@]12CCN(c3ccc(C)nn3)[C@@]1([H])CCN2C(=O)Cc1cccs1	8.684	-	-	29.05
O=C(O)C(F)(F)F.[H][C@@]12CCN(c3ccc(C)nn3)[C@@]1([H])CCN2C(=O)c1cscn1	-0.5319	-	-	-6.891
O=c1[nH]nc(SCC2CCCCO2)n1C1CC1 (centres undefined)	5.664	5.844	-3.507	-1.566
CCN1CC[C@]2(CN(Cc3nccs3)C[C@H]2c2ccccc2)C1=O.O=C(O)C(F)(F)F	-7.363	-	-	23.61
CCN1CCN(CCNC(=O)c2ccn(-c3ccc(F)cc3)n2)CC1	-6.186	-7.267	-6.403	7.397
CC(C)Nc1nc2c(c(NC3CC3)n1)CN(C(=O)Cc1ccsc1)CC2	-0.05319	13.5	-	9.959
CC(C)(C)OC(=O)N1CCCC[C@H]1C(=O)NCc1nccs1	1.542	-3.39	6.167	12.63
Cc1nc(C)n(CC2CCCCN2CC(=O)Nc2nncs2)n1 (centres undefined)	-2.203	1.245	0	1.389
CN(C)C[C@]12COC[C@H]1CN(Cc1ccc3ccccc3n1)C2	-	5.747	0.2037	-
Cc1ccc(C(C)NC(=O)Nc2ccccc2CN2CCOCC2)o1 (centres undefined)	2.711	1.695	-0.4405	26.47
Fc1ccc(Oc2ccc(CNCC3CNc4ccnn4C3)cn2)cc1 (centres undefined)	-23.02	18.97	1.161	41.63
CC(=O)NC1CCN(c2nc(N(C)C)nc3c2CCN(C(C)=O)C3)CC1	17.85	0.5405	6.41	6.781
[H][C@]12CC[C@]([H])(CN(C(=O)C3CCC3)C1)N(Cc1cnc(CC)nc1)C2	-4.648	-	-	15.61
COC(=O)CN1N=C(C(=O)N2CCCC2)S(=O)(=O)c2ccccc21	-1.416	6.186	-3.171	19.45 and 12.3
CNS(=O)(=O)Cc1ccc(CNC(=O)Nc2cn[nH]c2)cc1	-	1.504	1.285	11.15
O=C(c1ccncc1)N1CCN(C(=O)c2coc3ccccc23)CC1	-3.196	7.895	-	13.48

The first 3 entries again:

O=C1CNc2ncnc(Nc3cnn(Cc4cccc(F)c4)c3)c2N1 read Toxoplasma: -33.56%; TcHisRS: 9.901%; CoaBC: 1.205%; Leishmania in macrophages: 1.163%.
O=C(O)C(F)(F)F.[H][C@@]12CN(C(=O)Cc3ccsc3)C[C@]1([H])OCCN2CC1CC1 read Toxoplasma: -5.918%; Leishmania in macrophages: 27.27%.
c1cc(CNCc2ccc3c(c2)CCO3)cc(N2CCOCC2)n1 read TcHisRS: 1.695%; CoaBC: -6.167%.